Laboratory results taken from PubChem BioAssay AID194 (DTP/NCI, 2004).
The list does not hold the whole screen: it gathers tests that were run many times, whatever their T/C, doses with no T/C, and many T/C values between a quarter and a half above the control. Further doses and runs are listed elsewhere. T/C: endpoint of the treated group in % of that of the vehicle group. Schedules are NCI's codes, taken here to give the interval after Q, in days (D) or hours (H), and the number of doses after X. Some entries hold several experiments; their values stand side by side, smallest first. Some doses have a count of surviving animals in place of a T/C: the source files T/C as zero there, which appears to mark a toxic dose or a test without result, not a measured value. Some doses without a T/C left all or most animals alive at the check, yet need not have been tolerated: the source hardly ever lists a survival T/C far under the control, and the zero likely stands for such cases as well. Counts of survivors are from the toxicity check (mostly the fifth day) where no day follows; animals may have died later. Where survival is the endpoint, the PubChem record calls one and a half times the control and up active, and a quarter to a half above the control has no call in these data; cut-offs in other NCI protocols can differ. Some T/C values are followed by the survivors on the day toxicity was checked, most often the fifth; without a count, all were alive then. Counts like (3×) give the number of equal values in this list.

Tested on: BDF1 mice, B16 melanoma s.c., survival/tumor T/C
Assay: NCI In Vivo Anticancer Drug Screen. Data for tumor model B16 Melanoma (subcutaneous) in B6D2F1 (BDF1) mice
Protocol: The antitumor activity of compounds was measured in mice bearing transplantable tumors. Survival or tumor size were measured and the results are expressed as the measurement made in the treated group (T) divided by the measurement made in the vehicle treated control group (C). The tumor model used in this assay is B16 Melanoma (subcutaneous) in B6D2F1 (BDF1) mice

[1] = T/C endpoint: median survival time, dose: 25.0 mg/kg/injection, schedule: Q01DX009 (ip), vehicle: Klucel (hydroxypropylcellulose) (HPC), higher T/C = longer survival
[2] = T/C endpoint: median survival time, dose: 100.0 mg/kg/injection, schedule: Q01DX009 (ip), vehicle: saline, higher T/C = longer survival
[3] = T/C endpoint: median survival time, dose: 80.0 mg/kg/injection, schedule: Q01DX009 (ip), vehicle: saline, higher T/C = longer survival

For `COC12C(COC(N)=O)C3=C(C(=O)C(C)=C(N)C3=O)N1CC1C2N1C` (configuration not stated), the T/C (T/C endpoint: median survival time, dose: 2.0 mg/kg/injection, schedule: Q01DX009 (ip), vehicle: Klucel (hydroxypropylcellulose) (HPC), higher T/C = longer survival) was 138 % of control [9 of 10 alive], the T/C (T/C endpoint: median survival time, dose: 4.0 mg/kg/injection, schedule: Q01DX009 (ip), vehicle: Klucel (hydroxypropylcellulose) (HPC), higher T/C = longer survival) was 127 and 129 % of control and the survivor count (T/C endpoint: median survival time, dose: 8.0 mg/kg/injection, schedule: Q01DX009 (ip), vehicle: Klucel (hydroxypropylcellulose) (HPC), higher T/C = longer survival) was 10 of 10. The survivor count (T/C endpoint: median survival time, dose: 16.0 mg/kg/injection, schedule: Q01DX009 (ip), vehicle: Klucel (hydroxypropylcellulose) (HPC), higher T/C = longer survival) was 10 of 10 and the survivor count (T/C endpoint: median survival time, dose: 32.0 mg/kg/injection, schedule: Q01DX009 (ip), vehicle: Klucel (hydroxypropylcellulose) (HPC), higher T/C = longer survival) was 10 of 10.
For `CC(C)[C@](O)(C(=O)OCC1=CC[N+]2([O-])CC[C@@H](O)[C@@H]12)[C@H](C)O` (some centres not stated), the T/C (T/C endpoint: median survival time, dose: 400.0 mg/kg/injection, schedule: Q01DX009 (ip), vehicle: water, higher T/C = longer survival) was 133 % of control.
For `CC(=O)NNC(=O)c1ccccn1`, the survivor count [1] was 10 of 10, the survivor count (T/C endpoint: median survival time, dose: 200.0 mg/kg/injection, schedule: Q01DX009 (ip), vehicle: Klucel (hydroxypropylcellulose) (HPC), higher T/C = longer survival) was 6 of 10 and the survivor count (T/C endpoint: median survival time, dose: 400.0 mg/kg/injection, schedule: Q01DX009 (ip), vehicle: Klucel (hydroxypropylcellulose) (HPC), higher T/C = longer survival) was 2 of 10.
`O=P1(N(CCCl)CCCl)NCCCO1` (configuration not stated) was tested, and the T/C (T/C endpoint: median survival time, dose: 25.0 mg/kg/injection, schedule: Q01DX009 (ip), vehicle: saline, evaluated on day 29, higher T/C = longer survival) was 160 % of control, the T/C (T/C endpoint: median survival time, dose: 25.0 mg/kg/injection, schedule: Q01DX009 (ip), vehicle: saline, evaluated on day 59, higher T/C = longer survival) was 118 % of control and the T/C (T/C endpoint: median survival time, dose: 25.0 mg/kg/injection, schedule: Q01DX009 (ip), vehicle: saline, evaluated on day 60, higher T/C = longer survival) was 111, 115, 115 [5 of 6 alive], 130, 134, 135, 139, 152, 153, 155, 158 % of control. For the same molecule, the T/C (T/C endpoint: median survival time, dose: 50.0 mg/kg/injection, schedule: Q01DX009 (ip), vehicle: saline, evaluated on day 59, higher T/C = longer survival) was 190 % of control, the T/C (T/C endpoint: median survival time, dose: 50.0 mg/kg/injection, schedule: Q01DX009 (ip), vehicle: saline, evaluated on day 60, higher T/C = longer survival) was 98, 105, 117, 118, 121, 126 (2×), 137 [5 of 6 alive], 145, 156 % of control and the survivor count (T/C endpoint: median survival time, dose: 50.0 mg/kg/injection, schedule: Q01DX009 (ip), vehicle: saline, higher T/C = longer survival) was 5 of 8 on day 29. The T/C (T/C endpoint: median survival time, dose: 75.0 mg/kg/injection, schedule: Q01DX001 (ip), vehicle: saline, higher T/C = longer survival) was 103, 112, 117 (3×), 125, 136 % of control, the T/C [2] was 88, 91, 107 (2×), 121, 128, 157 % of control and the survivor count [2] was 0 of 8 on day 29, 1 of 10 on day 59, 5 of 5, 6 of 6. For the same molecule, the T/C (T/C endpoint: median survival time, dose: 150.0 mg/kg/injection, schedule: Q01DX001 (ip), vehicle: saline, higher T/C = longer survival) was 128, 130, 139, 141, 150, 152, 180 % of control, the survivor count (T/C endpoint: median survival time, dose: 240.0 mg/kg/injection, schedule: Q04DX003 (ip), vehicle: saline, higher T/C = longer survival) was 10 of 10 and the T/C (T/C endpoint: median survival time, dose: 300.0 mg/kg/injection, schedule: Q01DX001 (ip), vehicle: saline, evaluated on day 51, higher T/C = longer survival) was 192 % of control. For the same molecule, the T/C (T/C endpoint: median survival time, dose: 300.0 mg/kg/injection, schedule: Q01DX001 (ip), vehicle: saline, evaluated on day 60, higher T/C = longer survival) was 136 [4 of 6 alive], 152, 153, 161, 167, 173, 176 % of control, the T/C (T/C endpoint: median tumor weight (est.), dose: 75.0 mg/kg/injection, schedule: Q01DX001 (ip), vehicle: saline, evaluated on day 14, higher T/C = larger tumour) was 35 and 56 % of control and the T/C (T/C endpoint: median tumor weight (est.), dose: 75.0 mg/kg/injection, schedule: Q01DX001 (ip), vehicle: saline, evaluated on day 15, higher T/C = larger tumour) was 72 and 93 % of control. The T/C (T/C endpoint: median tumor weight (est.), dose: 75.0 mg/kg/injection, schedule: Q01DX001 (ip), vehicle: saline, evaluated on day 18, higher T/C = larger tumour) was 54 % of control.
In the case of `O=c1[nH]c(=O)n(C2CC(O)C(CO)O2)cc1C(F)(F)F` (configuration not stated), the T/C [3] was 132 % of control, the survivor count [3] was 10 of 10 and the survivor count (T/C endpoint: median survival time, dose: 160.0 mg/kg/injection, schedule: Q01DX009 (ip), vehicle: saline, higher T/C = longer survival) was 10 of 10. For the same molecule, the survivor count (T/C endpoint: median survival time, dose: 320.0 mg/kg/injection, schedule: Q01DX009 (ip), vehicle: saline, higher T/C = longer survival) was 10 of 10.
`COC(=O)C1C2CC3c4[nH]c5cc(OC)ccc5c4CCN3CC2CC(OC2CCCCO2)C1OC` (configuration not stated) was tested, and the survivor count (T/C endpoint: median survival time, dose: 6.25 mg/kg/injection, schedule: Q01DX009 (ip), vehicle: Klucel (hydroxypropylcellulose) (HPC), higher T/C = longer survival) was 10 of 10, the survivor count (T/C endpoint: median survival time, dose: 12.5 mg/kg/injection, schedule: Q01DX009 (ip), vehicle: Klucel (hydroxypropylcellulose) (HPC), higher T/C = longer survival) was 10 of 10 and the survivor count [1] was 10 of 10. The survivor count (T/C endpoint: median survival time, dose: 50.0 mg/kg/injection, schedule: Q01DX009 (ip), vehicle: Klucel (hydroxypropylcellulose) (HPC), higher T/C = longer survival) was 10 of 10 and the survivor count (T/C endpoint: median survival time, dose: 100.0 mg/kg/injection, schedule: Q01DX009 (ip), vehicle: Klucel (hydroxypropylcellulose) (HPC), higher T/C = longer survival) was 10 of 10.
`C=CCN1/C(=C/C=C\c2sc3ccccc3[n+]2CC=C)Sc2ccccc21` was tested, and the T/C (T/C endpoint: median survival time, dose: 250.0 micrograms/kg/injection, schedule: Q01DX009 (ip), vehicle: suspension in saline, higher T/C = longer survival) was 136 % of control, the T/C (T/C endpoint: median survival time, dose: 500.0 micrograms/kg/injection, schedule: Q01DX009 (ip), vehicle: suspension in saline, higher T/C = longer survival) was 128 % of control and the T/C (T/C endpoint: median survival time, dose: 1000.0 micrograms/kg/injection, schedule: Q01DX009 (ip), vehicle: suspension in saline, higher T/C = longer survival) was 129 % of control.
